Results are given in words; binding and its absence hold for the method and conditions named. Binding seen in cells or lysates may run through a third protein. Some results given as binding are weak or reduced against the parent protein; the word gives no strength.
Key:
[1] = biological target: Optineurin wild type, overexpressed in cells (human) (UniProt Q96CV9); assay: co-IP; association on TNF-α stimulation at overexpressed levels (Fig. 4c)
[2] = biological target: TNF receptor (TNFR) (human (endogenous in HeLa)) (UniProt P19438); assay: co-IP; parental and OPTN-KO HeLa cells stimulated with 1 μg/ml FLAG-TNF-α for the indicated times, lysed in 1% Triton X-100 buffer; TNFR complex I precipitated with anti-FLAG M2 beads, immunoblotting; also with overexpression of OPTN (Supplementary Fig. 10)
[3] = biological target: endogenous optineurin (human (endogenous in HEK293T and HeLa)) (UniProt Q96CV9); assay: co-IP; association on TNF-α stimulation at endogenous levels (Fig. 4d)
[4] = biological target: endogenous caspase 8 (pro-caspase 8) (human (endogenous in HeLa)) (UniProt Q14790); assay: co-IP; parental and OPTN-KO HeLa cells treated with TNF-α and CHX for the indicated times; anti-caspase 8 immunoprecipitates immunoblotted

Sequences of proteins named here, by UniProt entry; tags and fusion partners are left off. Residues count along the entry.
UniProt Q96CV9: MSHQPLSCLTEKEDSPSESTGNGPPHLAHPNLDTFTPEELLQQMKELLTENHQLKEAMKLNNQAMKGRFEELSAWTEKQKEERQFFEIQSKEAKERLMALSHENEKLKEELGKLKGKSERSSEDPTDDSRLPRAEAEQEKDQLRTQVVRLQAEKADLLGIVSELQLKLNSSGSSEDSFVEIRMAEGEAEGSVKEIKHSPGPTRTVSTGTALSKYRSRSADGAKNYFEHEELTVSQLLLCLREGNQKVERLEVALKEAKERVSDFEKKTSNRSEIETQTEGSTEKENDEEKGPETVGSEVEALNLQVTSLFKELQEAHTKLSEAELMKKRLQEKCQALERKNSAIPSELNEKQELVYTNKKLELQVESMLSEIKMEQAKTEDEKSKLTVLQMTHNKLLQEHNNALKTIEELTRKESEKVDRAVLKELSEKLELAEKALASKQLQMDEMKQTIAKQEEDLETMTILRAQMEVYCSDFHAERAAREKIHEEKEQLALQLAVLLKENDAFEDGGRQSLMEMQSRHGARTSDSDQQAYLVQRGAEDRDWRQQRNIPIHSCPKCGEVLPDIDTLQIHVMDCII
UniProt P19438, residues 30-455: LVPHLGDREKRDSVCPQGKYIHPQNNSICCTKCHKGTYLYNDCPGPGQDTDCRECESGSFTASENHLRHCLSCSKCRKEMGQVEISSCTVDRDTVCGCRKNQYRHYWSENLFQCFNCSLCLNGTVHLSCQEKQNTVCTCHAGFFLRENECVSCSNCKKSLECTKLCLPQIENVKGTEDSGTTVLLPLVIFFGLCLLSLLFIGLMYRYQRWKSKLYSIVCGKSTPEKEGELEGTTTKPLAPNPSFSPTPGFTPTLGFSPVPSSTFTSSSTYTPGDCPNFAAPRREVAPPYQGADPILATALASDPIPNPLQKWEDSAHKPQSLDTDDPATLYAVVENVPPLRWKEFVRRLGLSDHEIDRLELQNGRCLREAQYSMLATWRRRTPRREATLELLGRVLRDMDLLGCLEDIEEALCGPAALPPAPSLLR
UniProt Q14790: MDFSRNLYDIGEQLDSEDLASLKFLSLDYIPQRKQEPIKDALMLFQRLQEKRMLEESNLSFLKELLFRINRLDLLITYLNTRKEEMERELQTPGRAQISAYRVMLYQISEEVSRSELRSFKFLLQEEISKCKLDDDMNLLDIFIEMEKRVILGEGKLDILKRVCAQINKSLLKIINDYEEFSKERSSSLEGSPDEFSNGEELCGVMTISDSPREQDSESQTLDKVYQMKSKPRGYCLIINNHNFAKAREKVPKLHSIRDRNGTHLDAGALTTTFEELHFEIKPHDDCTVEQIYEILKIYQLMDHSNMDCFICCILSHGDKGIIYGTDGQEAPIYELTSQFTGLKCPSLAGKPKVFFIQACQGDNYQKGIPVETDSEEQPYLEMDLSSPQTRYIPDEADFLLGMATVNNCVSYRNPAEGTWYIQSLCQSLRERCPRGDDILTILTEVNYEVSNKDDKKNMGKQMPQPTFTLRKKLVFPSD
UniProt Q13546: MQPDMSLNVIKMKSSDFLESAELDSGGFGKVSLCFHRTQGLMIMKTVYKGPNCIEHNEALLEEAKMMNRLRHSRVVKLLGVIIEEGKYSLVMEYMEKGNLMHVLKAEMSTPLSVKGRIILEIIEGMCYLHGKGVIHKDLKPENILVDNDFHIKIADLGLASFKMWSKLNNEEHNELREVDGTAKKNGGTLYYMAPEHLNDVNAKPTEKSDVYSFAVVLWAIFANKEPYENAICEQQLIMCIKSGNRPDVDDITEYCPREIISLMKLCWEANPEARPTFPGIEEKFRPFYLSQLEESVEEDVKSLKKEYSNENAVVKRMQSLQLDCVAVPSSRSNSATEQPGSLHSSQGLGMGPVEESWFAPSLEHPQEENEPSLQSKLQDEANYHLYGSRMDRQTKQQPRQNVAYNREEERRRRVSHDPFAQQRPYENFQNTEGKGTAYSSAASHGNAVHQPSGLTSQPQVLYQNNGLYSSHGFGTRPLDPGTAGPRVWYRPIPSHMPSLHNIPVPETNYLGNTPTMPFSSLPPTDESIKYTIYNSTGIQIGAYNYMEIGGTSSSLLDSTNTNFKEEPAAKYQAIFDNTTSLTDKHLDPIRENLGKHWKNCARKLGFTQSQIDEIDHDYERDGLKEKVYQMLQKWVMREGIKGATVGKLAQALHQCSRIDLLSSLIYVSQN
UniProt Q96EP0: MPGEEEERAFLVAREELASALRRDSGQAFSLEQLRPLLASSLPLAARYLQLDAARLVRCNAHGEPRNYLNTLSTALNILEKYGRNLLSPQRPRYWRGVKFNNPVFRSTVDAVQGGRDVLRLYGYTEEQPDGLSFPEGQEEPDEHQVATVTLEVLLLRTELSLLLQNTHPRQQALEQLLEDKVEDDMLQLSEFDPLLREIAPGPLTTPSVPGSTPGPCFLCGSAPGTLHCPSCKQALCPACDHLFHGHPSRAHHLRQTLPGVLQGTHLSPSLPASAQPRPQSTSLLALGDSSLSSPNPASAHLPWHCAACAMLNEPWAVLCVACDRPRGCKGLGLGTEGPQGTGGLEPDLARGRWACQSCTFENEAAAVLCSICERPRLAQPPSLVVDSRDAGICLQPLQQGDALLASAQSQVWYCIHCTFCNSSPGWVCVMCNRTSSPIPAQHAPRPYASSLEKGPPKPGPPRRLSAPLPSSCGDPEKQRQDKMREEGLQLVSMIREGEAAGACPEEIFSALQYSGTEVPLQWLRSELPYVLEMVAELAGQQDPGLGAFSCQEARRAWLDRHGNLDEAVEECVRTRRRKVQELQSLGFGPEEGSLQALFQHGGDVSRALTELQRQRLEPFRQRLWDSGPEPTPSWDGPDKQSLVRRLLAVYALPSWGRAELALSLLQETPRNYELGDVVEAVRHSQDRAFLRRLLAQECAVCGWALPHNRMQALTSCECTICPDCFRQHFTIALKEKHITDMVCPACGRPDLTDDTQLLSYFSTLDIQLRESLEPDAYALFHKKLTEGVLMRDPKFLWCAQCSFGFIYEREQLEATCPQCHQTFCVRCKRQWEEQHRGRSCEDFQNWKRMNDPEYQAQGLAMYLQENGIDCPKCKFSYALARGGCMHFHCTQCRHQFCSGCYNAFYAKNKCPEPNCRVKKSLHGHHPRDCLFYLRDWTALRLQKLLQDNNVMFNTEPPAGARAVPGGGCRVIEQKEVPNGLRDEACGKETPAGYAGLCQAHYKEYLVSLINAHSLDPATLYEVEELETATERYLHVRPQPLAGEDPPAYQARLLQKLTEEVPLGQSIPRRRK
UniProt Q9Y6K9: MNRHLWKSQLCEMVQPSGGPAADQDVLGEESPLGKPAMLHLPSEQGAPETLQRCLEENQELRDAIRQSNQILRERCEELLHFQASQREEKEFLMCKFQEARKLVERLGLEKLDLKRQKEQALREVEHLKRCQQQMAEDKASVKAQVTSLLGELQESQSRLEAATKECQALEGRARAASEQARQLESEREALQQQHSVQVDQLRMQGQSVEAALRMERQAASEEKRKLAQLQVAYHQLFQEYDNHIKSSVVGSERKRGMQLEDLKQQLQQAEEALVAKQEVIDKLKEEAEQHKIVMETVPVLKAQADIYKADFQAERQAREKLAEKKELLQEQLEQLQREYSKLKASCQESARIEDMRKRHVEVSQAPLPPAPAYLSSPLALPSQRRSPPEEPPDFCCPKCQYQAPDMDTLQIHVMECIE

Row | Substance | binding [2] | also measured
1 | RIP1, overexpressed (from UniProt Q13546 1-671) (enzyme) | – | binding [1]: binds
2 | endogenous HOIL-1L (LUBAC component) (from UniProt Q9BYM8-1 1-510) (enzyme) | binds | –
3 | endogenous HOIP (LUBAC component) (from UniProt Q96EP0 1-1072) (enzyme) | binds | –
4 | endogenous NEMO (from UniProt Q9Y6K9 1-419) | binds | –
5 | endogenous RIP1 (from UniProt Q13546 1-671) (enzyme) | – | binding [3]: binds
6 | endogenous optineurin (from UniProt Q96CV9 1-577) | – | binding [4]: binds
